Measured values as given in article PMC6727020.
No constants are given. Whether binding was seen depends on the method and setting. In cells and extracts the contact can be indirect. Some entries that bind do so weakly or less than the wild type.

Sequences of proteins named here, by UniProt entry; tags and fusion partners are left off.
UniProt Q8R4B8: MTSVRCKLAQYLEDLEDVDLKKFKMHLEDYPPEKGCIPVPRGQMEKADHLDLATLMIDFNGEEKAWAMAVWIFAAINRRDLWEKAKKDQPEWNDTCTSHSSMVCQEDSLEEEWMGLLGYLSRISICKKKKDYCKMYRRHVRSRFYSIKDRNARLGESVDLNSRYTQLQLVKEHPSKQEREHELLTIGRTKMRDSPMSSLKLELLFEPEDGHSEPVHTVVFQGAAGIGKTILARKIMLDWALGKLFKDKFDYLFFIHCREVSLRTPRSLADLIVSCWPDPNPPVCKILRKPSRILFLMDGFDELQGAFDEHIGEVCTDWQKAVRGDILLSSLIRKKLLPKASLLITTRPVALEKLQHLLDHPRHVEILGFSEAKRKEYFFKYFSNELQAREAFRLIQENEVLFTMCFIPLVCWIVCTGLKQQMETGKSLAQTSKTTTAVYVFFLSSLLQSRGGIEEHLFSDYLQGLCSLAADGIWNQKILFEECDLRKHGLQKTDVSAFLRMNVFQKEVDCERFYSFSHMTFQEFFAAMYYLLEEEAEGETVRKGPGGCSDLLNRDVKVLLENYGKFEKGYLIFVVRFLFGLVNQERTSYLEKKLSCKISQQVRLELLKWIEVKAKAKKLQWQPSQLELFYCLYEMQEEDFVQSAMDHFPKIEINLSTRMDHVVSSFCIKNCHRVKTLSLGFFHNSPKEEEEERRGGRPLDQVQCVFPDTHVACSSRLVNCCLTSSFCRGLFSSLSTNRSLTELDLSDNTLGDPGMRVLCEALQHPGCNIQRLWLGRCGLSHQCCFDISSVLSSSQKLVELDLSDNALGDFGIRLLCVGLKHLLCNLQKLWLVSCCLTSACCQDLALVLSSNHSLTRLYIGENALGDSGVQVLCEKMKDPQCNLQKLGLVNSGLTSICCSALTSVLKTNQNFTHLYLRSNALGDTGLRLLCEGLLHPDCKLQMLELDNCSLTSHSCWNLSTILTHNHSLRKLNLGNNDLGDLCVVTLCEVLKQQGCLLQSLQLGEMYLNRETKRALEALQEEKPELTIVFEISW

Experiments:
[1] = target: nucleotide-binding oligomerization domain, leucine-rich repeat and pyrin domain-containing 3 (mouse (endogenous in primary cortical neurons of C57BL/6 mice)) (UniProt Q8R4B8); test: co-IP; as a1, but neurons treated with LPS alone (10 ng/ml, 4 h), no ATP
[2] = target: nucleotide-binding oligomerization domain, leucine-rich repeat and pyrin domain-containing 3 (mouse (endogenous in primary cortical neurons of C57BL/6 mice)) (UniProt Q8R4B8); test: co-IP; endogenous proteins of primary cortical neurons (NC-shRNA or NEK7-shRNA) stimulated with LPS + ATP or K+-free medium; Pierce IP lysis buffer; anti-NEK7 or anti-NLRP3 antibody coupled to Dynabeads, IgG as negative control, overnight at 4°C; Western blot

binding [1]: binds weakly
binding [2]: binds
B1: pro-caspase-1 (enzyme, UniProt P29452 1-402)
chain: MADKILRAKRKQFINSVSIGTINGLLDELLEKRVLNQEEMDKIKLANITAMDKARDLCDHVSKKGPQASQIFITYICNEDCYLAGILELQSAPSAETFVATEDSKGGHPSSSETKEEQNKEDGTFPGLTGTLKFCPLEKAQKLWKENPSEIYPIMNTTTRTRLALIICNTEFQHLSPRVGAQVDLREMKLLLEDLGYTVKVKENLTALEMVKEVKEFAACPEHKTSDSTFLVFMSHGIQEGICGTTYSNEVSDILKVDTIFQMMNTLKCPSLKDKPKVIIIQACRGEKQGVVLLKDSVRDSEEDFLTDAIFEDDGIKKAHIEKDFIAFCSSTPDNVSWRHPVRGSLFIESLIKHMKEYAWSCDLEDIFRKVRFSFEQPEFRLQMPTADRVTLTKRFYLFPGH
